Source: US8470806B2, “Perhexiline for treating chronic heart failure” (Heart Metabolics Limited, priority 2004, dated 2013)

Test system: patients with CHF
Test: Cardiopulmonary exercise test (treadmill, Weber protocol, respiratory gas analysis)
Format: in vivo, human
Conditions: Post, after 8 weeks
From the text: An embodiment of the invention will now be described by way of example only wherein a double-blind, randomised, placebo-controlled study was undertaken in order to investigate the effects of perhexiline on chronic heart failure. 56 patients with CHF were recruited and all provided written informed consent. Entry criteria were as follows: left ventricular ejection fraction (LVEF) <40%, optimally medicated heart failure with New York Heart Association (NYHA) Class II-III symptoms. Cardiopulmonary exercise testing with respiratory gas analysis, completion of the Minnesota Living with Heart Failure Questionnaire (MLHFQ) and 2-D echocardiography were performed at baseline on all patients. Incremental exercise testing with assessment of respiratory gas exchange was performed on a treadmill using the Weber protocol. Breath by breath respiratory gases were measured during exercise using a Pulmolab EX670 system mass spectrometer which was calibrated before every study. Raw data were averaged to 30 second intervals and oxygen consumption during peak exercise was obtained (VO2 max; ml/kg/min). Electrocardiograms and blood pressure were monitored throughout. Exercise was terminated at the subject's request due to fatigue or breathlessness. […] Data were analyzed with SPSS 11.5 for Windows® and expressed as mean±standard error of mean. […]

SMILES: C1CCC(C(CC2CCCCN2)C2CCCCC2)CC1 (stereo not shown) [Perhexiline, 2-(2,2-dicyclohexylethyl)piperidine]
- Peak Exercise Heart Rate: 120 ± 5 min⁻¹
